Measured values from PubChem BioAssay AID1794845 (National Center for Advancing Translational Sciences (NCATS), 2023).
Screen size: about 6,900 compounds; fewer than 10 were called active. Calls follow the shape of the dose curve; as a rule, active = well fitted curve in the direction sought with a large enough effect; inconclusive = small, poorly fitted or top-dose-only effect, or another doubt; inactive = no such curve, though single readings can be large or run the other way. This is one part of the list.

The chains behind the UniProt entries cited, without tags or fusion partners. Where a name states a change or a piece, a line headed by the entry shows the natural chain unless it says otherwise.
UniProt C7C422: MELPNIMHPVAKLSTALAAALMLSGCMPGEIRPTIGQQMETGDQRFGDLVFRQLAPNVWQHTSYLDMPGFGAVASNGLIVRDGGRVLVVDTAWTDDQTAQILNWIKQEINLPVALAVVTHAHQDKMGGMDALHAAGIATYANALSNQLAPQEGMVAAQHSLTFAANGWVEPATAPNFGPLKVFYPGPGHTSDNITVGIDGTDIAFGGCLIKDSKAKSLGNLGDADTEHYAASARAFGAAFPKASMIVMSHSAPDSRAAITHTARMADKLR

biological target: Metallo-beta-lactamase type 2 (Klebsiella pneumoniae) (UniProt C7C422); experiment: qHTS to identify inhibitors of the New Delhi Metallo-beta-lactamase (NDM): primary screen against the NCATS Gemini Collection; conditions: NDM-1 enzyme, meropenem hydrolysis, absorbance 300 nm; at 38.4 µM (top of the series) unless noted; also: % of control where 0% means no effect
Summary of the method: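 Meropenem hydrolysis (50 uM final) by 2 nM NDM-1 read as 300 nm absorbance after 30 min, following >30 min compound–enzyme preincubation in HEPES pH 7.0 with 1 uM ZnSO4 and 0.01% Tween20.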

Activity % (negative = inhibition), inactive:
CC(C)CNC(=O)C1CC(c2ccccc2F)=NO1 (stereo not given) -2.02%
C=CCNC(=O)N[C@H]1[C@H](O)[C@@H](N2CCC(Cc3ccccc3)CC2)[C@@H]2OC[C@H]1O2 -3.65% [at 57.5 µM]
C[C@@H](NC(=O)C1=C[C@@H](NS(=O)(=O)c2cccc(C(F)(F)F)c2)[C@@H](O)[C@H](O)C1)C(N)=O 4.92%
CCCS(=O)(=O)N1CCCC(OCc2noc(C3CCOCC3)n2)C1 (stereo not given) -2.91%
COc1ccc(CNC(=O)c2cc3c(s2)CN(C2CC2)C3)cc1OC 19.4%
COC[C@H]1NC(=O)CC[C@H]1C(=O)O -0.13%
O=C(c1ccccc1C(F)(F)F)N1CCc2nc3cc[nH]n3c(=O)c2C1 5.52%
CCCN(CC1CCOC1)S(=O)(=O)c1cc(F)ccc1C (stereo not given) 5.17%
Cc1nc(C(=O)N2CC[C@H](NS(=O)(=O)c3cn(C)cn3)C[C@H]2C(=O)N[C@H](Cc2ccccc2)C(N)=O)cs1 28.5%
CNc1ccc(C(=O)NCCCc2c(C)noc2C)cn1 9.78%
Cc1nnc(-c2cc(-c3ccc(CO)cc3)ccn2)n1Cc1ccccc1 1.09% [at 57.5 µM]
Cc1cccc2c1nc1n2[C@@H](CNCc2nc3ccccc3n2C)COC1 -2.44% [at 57.5 µM]
O=C(Nc1ccccc1)N1CCCC(C(=O)N2CCC(N3CCOCC3=O)CC2)C1 (stereo not given) -1.48%
COCCn1c(CN(C)Cc2sccc2C)cnc1S(=O)(=O)CC1CCCCC1 24.9%
Cc1cnc(C(=O)N2C[C@H]3OC(=O)N(CCc4cccc(Cl)c4)[C@H]3C2)[nH]1 -2.73%
O=C1CC(C(=O)O)C2(CCN(c3cc(C(=O)O)c4ccccc4n3)CC2)N1 (stereo not given) -9.55%
CC(C)c1noc(CC2CCN(C(=O)c3cc4ccccc4[nH]3)CC2)n1 2%
COc1ccccc1Nc1ncc2c(n1)CN(C(=O)c1cc3ccccc3n1C)CCN2 46.4% [at 57.5 µM]
Cc1cn2c(=O)cc(CN3CC[C@@](C)(O)[C@@H](O)C3)nc2s1 1.93%
CCCS(=O)(=O)N1C[C@@H](COC)[C@H](c2nc(C)no2)C1 19.5%
CC(=O)Nc1cccc(-c2n[nH]c3c2CC(=O)N(CCOc2ccccc2)C3)c1 5.04% [at 57.5 µM]
O=c1n(CCN2CCCN([S+](=O)([O-])c3cccc(C(F)(F)F)c3)CC2)nc2n1CCCC2 1.72%
Cc1nn(C)c(C)c1CCC(=O)NCCc1ncc(C)n1C1CCCCC1 0.104%
CS(=O)(=O)N(C1CCOCC1)C1CN(S(=O)(=O)c2ccccc2)C1 -4.48%
Nc1nc(C2CC(NC(=O)c3[nH]nc(N)c3-c3ccccc3)C2)cc(=O)[nH]1 (stereo not given) 6.22%
c1ccc(CN2CCNc3cnc(Nc4ccc(N5CCOCC5)cc4)cc3C2)cc1 14.9% [at 57.5 µM]
COCCOCC1(CNC(=O)c2cccnc2)C[C@@H](O)[C@@H](O)C1 (stereo not given in full) 63.5% [at 57.5 µM]
Cc1cccc(C(=O)N2CC[C@H]3C(=O)NCCCCCCN(Cc4ccncc4)[C@@H]3C2)c1 1.14%
COC(=O)CNC(=O)N1CCC2(CC1)CC(c1ccccc1)CN(C)C2 (stereo not given) 13%
CCn1cc(S(=O)(=O)N2CCCC2Cc2noc(-c3ccccc3)n2)cn1 (stereo not given) 11.3%
CN(Cc1cccnc1)C1CCCc2ccccc21 (stereo not given) 24.9% [at 57.5 µM]
COC1CN(c2cccc(F)c2)C12CCN(S(=O)(=O)c1cccs1)CC2 (stereo not given) -0.611%
Cc1ccn2c(C(=O)N3CCCC(c4[nH]ncc4-c4ccccc4)C3)nnc2n1 (stereo not given) 0.204%
CC(=O)N1CCC(c2nnc3n2C(C(=O)Nc2ccc(C)cc2)CC3)CC1 (stereo not given) -2.15%
NCC(=O)N1CCCC2(Cc3ccccc3CN2S(=O)(=O)c2ccccc2)C1 (stereo not given) -1.87%
CCNc1nc2c(s1)C(c1cccc(F)c1)CC(=O)N2 (stereo not given) 0.957%
CNC(=O)[C@@H]1CN(C(=O)c2ccc(OC)nc2OC)C[C@H]1c1n[nH]c(C)n1 0.858%
O=C1NCCCCCN(C(=O)Cc2cccc(F)c2)[C@H]2CCC[C@@H]12 61.2%
CC(C)CC(=O)Nc1ccnn1C1CCN(C(=O)c2scc3c2CCCC3)CC1 -1.41%
CCCCNC(=O)c1nnn2cc(-c3ccc(Cl)cc3)[nH]c(=O)c12 13.9%
O=C(c1ccc2cc[nH]c2c1)N1CCCC(Cc2noc(-c3ccccn3)n2)C1 (stereo not given) 31.3%
Cc1cnc(C2CC2)n1C1CCCN(Cc2ccccc2)C1 (stereo not given) -3.04%
c1ccc(OCCCn2cc(-c3cncnc3)nn2)cc1 4.76%
CC(C)Cc1cc(C(=O)NCC2CCN(c3cnn(C)c(=O)c3)C2)no1 (stereo not given) 26.2%
CCC(CC)C(=O)N1CC[C@@H]2COCCN(Cc3cccnc3)[C@@H]2C1 2.78%
CC(C)c1cc(C(=O)N[C@@H]2COCC[C@@H]2OCc2cscn2)cs1 51.4%
Cc1ccc(C(=O)N2CC(CN3C(=O)c4c(c(C)nn4-c4ccccc4)C3C3CC3)C2)cc1 (stereo not given) 2.76%
Cn1c(Cn2cccn2)nnc1C1CC(NC(=O)c2sccc2N)C1 (stereo not given) 8.34%
NC(=O)[C@@H]1CN(Cc2ccccn2)C[C@H]1COc1ccccc1 0.444%
Cc1ccc(NC(=O)N2CC(n3cc(C(=O)NCc4ccncc4)nn3)C2)cc1C 67.1%
O=C1CO[C@H]2CN(Cc3ccc(C(F)(F)F)cc3)C[C@H]2N1 -14.3% [at 57.5 µM]
COCC(=O)N[C@H]1C[C@@H](CO)N(Cc2cccc(OC)c2)C1 13.7%
COCCNC(=O)[C@@H]1C[C@H](Oc2ccccc2)CN1C(=O)c1cnccn1 3.13%
CS(=O)(=O)N(Cc1cccnc1)C1CN(C(=O)Nc2ccc3c(c2)OCCO3)C1 -0.602%
CS(=O)(=O)N1C[C@@H](COc2ccccc2)[C@H](C(N)=O)C1 48.6%
COc1ccc(-n2c(CCN)n[nH]c2=O)c(C)c1 11.2%
CC(=O)Nc1cccc(C(=O)N2CCC3(CC2)N=C(c2ccc(C)cc2)NO3)c1 -0.961%
CN1CCCN(S(=O)(=O)c2cccs2)c2ccccc21 -0.923%
O=C(c1ccc(C(F)(F)F)cc1)N1CCCC(C(=O)N2CCC(c3nc4ccncc4[nH]3)CC2)C1 (stereo not given) 2.62%
O=C(c1ccccc1F)N1CCC(Cc2nc(-c3cnccn3)no2)CC1 14.9%
COc1cc(F)ccc1-c1nc(-c2c(C)noc2C)cc2cc(C)oc12 27.1% [at 57.5 µM]
COC(=O)C[C@H]1CN(C(=O)OC(C)(C)C)CCN1 4.12% [at 57.5 µM]
CC(=O)N[C@H]1C[C@@H](c2cc(C)c(C)cc2C)O[C@@H](C(C)(C)C)C1 -0.667%
CN1CCC(C(=O)N2CCC(n3c(=O)[nH]c4ccccc43)CC2)CC1 -0.148%
O=C(Cn1ncc2ccccc2c1=O)N1CCCCC1CCn1cccn1 (stereo not given) 3.55%
COCCn1c2c(c(=O)n1-c1ccccc1)CCN(Cc1cccc(C#N)c1)C2 1.1% [at 57.5 µM]
COCC1CN(C2CCC2)CC12CCN(S(=O)(=O)c1cnc[nH]1)CC2 (stereo not given) -13.9%
Cc1ccc(S(=O)(=O)N2CCc3nc4cc[nH]n4c(=O)c3C2)cc1C 1.93%
CCOC(=O)C1CCN(C(=O)c2ccc3oc(-c4cccnc4)nc3c2)CC1 26%
CCCN1CC2(CCN(Cc3nc(CCOC)no3)CC2)CC1C(=O)O (stereo not given) 11.1%
O=C(Nc1cc(-c2ccncc2)nn1-c1ccccc1)c1ccc(Cl)cc1 14.3%
Nc1nc(CCC(=O)N[C@@H]2[C@@H](Cc3ccccc3)[C@H]3OCC[C@@H]23)cs1 -5.81%
CN1CCN(C(=O)N2CCC3(CCCN(C4CCCC4)C3=O)C2)CC1 (stereo not given) 2.27%
C[C@@H]1CN(C(=O)c2cccc(N3CCNC3=O)c2)C[C@@]1(O)C1CC1 16.8%
Cc1noc(C)c1CC(=O)N1CCCn2ccnc2C1c1ccccc1 (stereo not given) 24.4%
COC[C@@H]1CN(Cc2cnn(C(C)C)c2)C[C@H]1C(=O)NC1CC1 -1.59%
COc1ccc(-c2nc3c(c(=O)[nH]2)CCN(C(=O)Nc2ccccc2Cl)C3)cc1 4.22%
O=C1NCCOCCCN(S(=O)(=O)c2cccs2)[C@H]2CCCC[C@@H]12 0.676%
COCC(=O)NC[C@H]1CCN(Cc2ccccn2)C[C@H]1N(C)C 7.78%
CCCNC(=O)N1CCCC(c2nc(CCOc3ccc(F)cc3)no2)C1 (stereo not given) 13.6%
CC(=O)N1CC2(CCCN2Cc2cccc(C(N)=O)c2)Cc2ccccc21 (stereo not given) 15.2%
COc1ccc(CNC(=O)C[C@@H]2C[C@H]3O[C@H](CNC4CCCC4)[C@@H](O)[C@H]3O2)cc1 -1.67% [at 57.5 µM]
COC(=O)CNC(=O)NCCc1ncc(C)n1C1CCCC1 -2.91%
COc1ccccc1N1CCN(CC[C@H]2CN(C(=O)NC3CCCCC3)CC[C@H]2CC(=O)O)CC1 -2.13%
CN1CC(=O)N(C2CCNCC2)Cc2c(NCCCO)ncnc21 4.04%

Part of the list above in order of molar mass, rising.
Activity % (negative = inhibition), inactive:
Cc1cn2c(=O)cc(CN3CC[C@@](C)(O)[C@@H](O)C3)nc2s1 1.93%
C[C@@H]1CN(C(=O)c2cccc(N3CCNC3=O)c2)C[C@@]1(O)C1CC1 16.8%
CN1CC(=O)N(C2CCNCC2)Cc2c(NCCCO)ncnc21 4.04%
Nc1nc(C2CC(NC(=O)c3[nH]nc(N)c3-c3ccccc3)C2)cc(=O)[nH]1 (stereo not given) 6.22%
Cc1cnc(C(=O)N2C[C@H]3OC(=O)N(CCc4cccc(Cl)c4)[C@H]3C2)[nH]1 -2.73%
O=C(c1ccc2cc[nH]c2c1)N1CCCC(Cc2noc(-c3ccccn3)n2)C1 (stereo not given) 31.3%
COCCn1c(CN(C)Cc2sccc2C)cnc1S(=O)(=O)CC1CCCCC1 24.9%
